{
  "source": "patent US20040091477A1",
  "about": "“Immunosuppresive compositions” (priority 2003, published 2004)",
  "origin": "cited, not measured here",
  "conditions": "cited from earlier work",
  "note": "At least one structure is not confirmed: it was looked up by name or label, or the drawing left a doubt.",
  "data": [
    {"compound": "C[C@@H]1C(=O)O[C@@H]2[C@H]1[C@@]13OC4OC(=O)[C@H](O)C45[C@H](C(C)(C)C)[C@@H](O)C(OC1=O)[C@]53[C@H]2O", "note": "(stereo partly shown) [Ginkgolide M]", "values": [
      {"measurement": "antioxidant / free radical scavenging activity (in words)", "result": "antioxidant properties"}
    ]}
  ]
}
